# What was measured:
# [1] = test system: human endometrial epithelial cells (HEECs); assay: LC-MS/MS analysis of plasma membrane-enriched proteins of HEECs; details: for Total unique peptides, Samples 1: sample 1, proliferative phase; for Total unique peptides, Samples 2: sample 2, proliferative phase; for Total unique peptides, Samples 3: sample 3, proliferative phase
# Ishikawa cells = assay: RNAseq of control and PCX-OE Ishikawa cells; assay type: cell-based, human; details: RNAseq mRNA of the named gene; PCX-OE vs control Ishikawa cells; p<0.01, Log(2)FC>2 or <−2
Substance,"Total unique peptides, Samples 1 [1]","Total unique peptides, Samples 2 [1]","Total unique peptides, Samples 3 [1]",Levels in PCX-OE compared to control cells (Ishikawa cells)
Myoferlin,9,8,4,–
Integrin beta-3,5,2,7,–
Integrin alpha-1,5,6,6,–
FGF2,–,–,–,Down-regulated
Ezrin,7,4,3,–
Integrin beta-1,9,11,12,–
Integrin alpha-6,9,8,9,–
Neuroplastin,3,1,1,–
Heat shock protein HSP 90-alpha,18,23,10,–
DKK1,–,–,–,Down-regulated
"Trans-golgi network protein 2, isoform CRA",1,1,1,–
Mucin-1,1,1,–,–
Talin-1,34,36,4,–
IQGAP1 IQ motif containing GTPase activating protein 1,19,21,15,–
Integrin alpha V protein,7,2,8,–
Alpha-enolase,7,8,6,–
Sodium/potassium-transporting ATPase subunit beta-3,3,1,2,–
BMP4,–,–,–,Down-regulated
Prostaglandin F2 receptor negative regulator,5,6,3,–

# — patent US20220268780A1, “METHODS OF PREDICTING ENDOMETRIAL RECEPTIVITY” (HUDSON INSTITUTE OF MEDICAL RESEARCH, priority 2019, published 2022)
